# Measured values: paper PMC10281260
# Sequences of proteins named here, by UniProt entry; tags and fusion partners are left off. Residues count along the entry.
# UniProt P54368: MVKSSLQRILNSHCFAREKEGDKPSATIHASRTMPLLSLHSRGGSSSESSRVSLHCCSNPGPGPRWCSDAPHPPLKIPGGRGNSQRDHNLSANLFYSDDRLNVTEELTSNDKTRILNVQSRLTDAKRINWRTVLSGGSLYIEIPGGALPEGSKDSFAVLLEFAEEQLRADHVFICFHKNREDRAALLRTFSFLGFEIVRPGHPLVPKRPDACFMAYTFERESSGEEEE
# UniProt Q9UHB6, residues 161-759: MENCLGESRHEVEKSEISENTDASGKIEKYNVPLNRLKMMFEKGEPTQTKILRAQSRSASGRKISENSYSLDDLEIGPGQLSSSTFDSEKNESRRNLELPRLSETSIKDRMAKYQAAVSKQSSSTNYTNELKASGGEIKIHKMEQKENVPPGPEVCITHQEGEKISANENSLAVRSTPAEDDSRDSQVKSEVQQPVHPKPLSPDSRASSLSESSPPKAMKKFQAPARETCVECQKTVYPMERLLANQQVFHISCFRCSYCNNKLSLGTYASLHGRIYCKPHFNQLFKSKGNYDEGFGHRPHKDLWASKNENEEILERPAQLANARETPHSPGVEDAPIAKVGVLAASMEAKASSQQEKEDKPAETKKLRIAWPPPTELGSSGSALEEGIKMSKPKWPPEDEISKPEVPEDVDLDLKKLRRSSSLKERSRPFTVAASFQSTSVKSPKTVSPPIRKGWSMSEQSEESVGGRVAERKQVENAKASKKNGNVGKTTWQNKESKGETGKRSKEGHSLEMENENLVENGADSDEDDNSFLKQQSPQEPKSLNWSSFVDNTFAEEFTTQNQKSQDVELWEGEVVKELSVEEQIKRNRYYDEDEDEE
# Results are given in words; binding and its absence hold for the method and conditions named. In cells and extracts the contact can be indirect. Some entries that bind do so weakly or less than the wild type.
# Biological target: ornithine decarboxylase antizyme 1 (Myc-Az1) (human) (UniProt P54368)
# Experiment: co-IP; H1299 cells co-transfected with the plasmids; lysates (0.5% NP-40 buffer) collected 24 h post transfection; IP with anti-Myc antibody (~5 μg/ml) 3 h at 4°C, protein G-agarose 2 h at 4°C; western blot
substance,measurement,value
"EPLIN-α (LIM domain and actin-binding protein 1, isoform α) (from UniProt Q9UHB6-2 1-599)",binding,binds
